The record followed here is patent US20250143290A1, “AGROCHEMICAL COMPOSITION COMPRISING AT LEAST ONE AGROCHEMICAL ACTIVE COMPONENT AND A SOLVENT” (MINAGRO SRL, priority 2022, published 2025).

In data set [1] the test system is wheat leaves. As to the kind of experiment: Penetration driving force on wheat leaves. Details: key to Penetration: 1: no; 2: yes; key to Intensity of the penetration strength: 1: very light; 2: light; 3: medium; 4: high. The note with it: wheat leaf, 2%; for Penetration: 1 μL droplet, 20° C.
Data set [2] deals with wheat leaves. As to the kind of experiment: Droplet behavior on wheat leaf fragment. Details: key to Retention: 0.5: the droplets stick after more than 10 attempts; the droplets stick after 5 to 10 attempts; the droplets stick after 2 to 4 attempts; 3: the droplets stick immediately; key to Shape of the drop just after deposit / Shape of the drop during drying: 1: drop round (very little surface contact); 2: light spread; 3: moderate spread; 4: high spread; 5: very high spread.

For data set [3], the system named is soybean leaves. The data set can be described thus: Droplet behavior on soybean leaf fragment. Details: key to Retention: 0.5: the droplets stick after more than 10 attempts; the droplets stick after 5 to 10 attempts; the droplets stick after 2 to 4 attempts; 3: the droplets stick immediately; key to Shape of the drop just after deposit / Shape of the drop during drying: 1: drop round (very little surface contact); 2: light spread; 3: moderate spread; 4: high spread; 5: very high spread.

`CCCCOCC1CCCO1` (stereo not drawn) [n-butyl THF, 2-(butoxymetyl)tetrahydrofuraan]: in data set [1], the “Intensity of the penetration strength” value was 2. The Penetration in data set [1] worked out at 2. Moreover, the Retention in data set [2] (1%), in data set [2] (2%), in data set [2] (5%), in data set [3] (1%), in data set [3] (2%) and in data set [3] (5%) was 3 throughout. For the same compound, the “Shape of the drop during drying” value in data set [2] (1%) came to 2; in data set [2] (2%), 4; in data set [2] (5%) it was 5; in data set [3] (1%), 2; in data set [3] (5%), 4. In addition, the “Shape of the drop just after deposit” value in data set [2] (1%) amounted to 2; in data set [2] (2%) it was 4; in data set [2] (5%) it was 5; in data set [3] (1%), 2; in data set [3] (5%), 4.
Turning to `CC(C)(C)OCC1CCCO1` (stereo not drawn) [t-butyl THF, 2-(tert-Butoxymethyl)tetrahydrofuran], the “Intensity of the penetration strength” value in data set [1] is given as 2. Also, the Penetration in data set [1] stood at 2. Besides, the Retention in data set [2] (1%), in data set [2] (2%), in data set [2] (5%), in data set [3] (1%), in data set [3] (2%) and in data set [3] (5%) was 3 throughout. Besides, the “Shape of the drop during drying” value in data set [2] (1%) turned out to be 1; in data set [2] (2%), 1; in data set [3] (1%), 1; in data set [3] (2%) it was 2; in data set [3] (5%) it was 2. Moreover, the “Shape of the drop just after deposit” value in data set [2] (1%) is listed as 1; in data set [2] (2%), 1; in data set [3] (1%), 1; in data set [3] (2%), 1; in data set [3] (5%) it was 2.
